PMC5361591
These are yes or no findings as the source states them, for the method shown. In cells and extracts the contact can be indirect. Some binding calls cover weakened binding; strength is not graded here.

The chains behind the UniProt entries cited, without tags or fusion partners.
UniProt Q8N122: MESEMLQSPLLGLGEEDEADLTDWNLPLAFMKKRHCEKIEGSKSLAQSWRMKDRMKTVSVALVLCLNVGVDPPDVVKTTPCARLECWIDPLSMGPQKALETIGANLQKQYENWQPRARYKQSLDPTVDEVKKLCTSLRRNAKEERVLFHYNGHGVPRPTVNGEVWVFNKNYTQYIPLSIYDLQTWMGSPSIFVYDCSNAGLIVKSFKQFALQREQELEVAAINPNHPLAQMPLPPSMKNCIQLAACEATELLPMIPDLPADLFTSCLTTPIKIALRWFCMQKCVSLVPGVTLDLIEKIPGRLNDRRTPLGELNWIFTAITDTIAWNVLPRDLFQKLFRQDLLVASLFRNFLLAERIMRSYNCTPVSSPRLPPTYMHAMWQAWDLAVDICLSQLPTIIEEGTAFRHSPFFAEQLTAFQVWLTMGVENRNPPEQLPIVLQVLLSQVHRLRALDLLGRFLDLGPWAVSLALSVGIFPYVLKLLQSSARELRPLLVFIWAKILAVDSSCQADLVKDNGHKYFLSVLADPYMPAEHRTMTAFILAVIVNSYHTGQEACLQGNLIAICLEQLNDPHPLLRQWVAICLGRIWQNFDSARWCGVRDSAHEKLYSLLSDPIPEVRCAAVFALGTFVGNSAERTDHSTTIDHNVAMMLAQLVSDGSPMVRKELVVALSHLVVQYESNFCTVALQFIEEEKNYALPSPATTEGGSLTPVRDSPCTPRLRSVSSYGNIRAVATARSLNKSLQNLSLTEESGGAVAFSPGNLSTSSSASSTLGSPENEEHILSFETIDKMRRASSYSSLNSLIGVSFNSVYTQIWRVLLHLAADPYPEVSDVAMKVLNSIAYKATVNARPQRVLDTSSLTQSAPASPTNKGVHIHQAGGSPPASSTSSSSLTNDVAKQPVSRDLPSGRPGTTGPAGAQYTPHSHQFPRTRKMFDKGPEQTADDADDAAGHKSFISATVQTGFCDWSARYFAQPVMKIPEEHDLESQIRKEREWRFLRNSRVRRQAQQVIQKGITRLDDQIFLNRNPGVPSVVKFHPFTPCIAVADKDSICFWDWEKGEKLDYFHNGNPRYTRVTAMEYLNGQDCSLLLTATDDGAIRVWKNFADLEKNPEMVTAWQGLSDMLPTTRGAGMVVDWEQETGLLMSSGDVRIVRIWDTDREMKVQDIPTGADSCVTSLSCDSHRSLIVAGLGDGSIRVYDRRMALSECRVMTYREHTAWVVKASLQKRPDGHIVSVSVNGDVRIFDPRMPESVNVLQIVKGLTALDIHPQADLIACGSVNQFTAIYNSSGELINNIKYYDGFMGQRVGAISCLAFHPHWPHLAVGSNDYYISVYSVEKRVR

Experiments:
[1] = target: MYC-PLK1^K82R (kinase-defective, dominant negative) (UniProt P53350); test: co-IP; HeLa cells overexpressing MYC-PLK1 (WT) or MYC-PLK1^K82R, full medium; IP with PLK1 or control (mock) antibodies, immunoblot for endogenous MTOR, RPTOR and LAMP2
[2] = target: MYC-tagged, wild-type PLK1 [MYC-PLK1 (WT)] (UniProt P53350); test: as above
[3] = target: PLK1 (polo like kinase 1) (human (endogenous in HeLa)) (UniProt P53350); test: co-IP; endogenous PLK1 precipitated with a PLK1 antibody or control (mock) IgG from HeLa lysates (40 mM HEPES, 120 mM NaCl, 0.3% CHAPS, pH 7.5; 4°C; Protein G Dynabeads), immunoblot; cells in full medium, or starved for amino acids (30 min) or for amino acids and growth factors (16 h), with shRPTOR or shControl, Torin1 or BI2536

binding [1]: binds
binding [2]: binds
binding [3]: binds
Substance: RPTOR/RAPTOR (regulatory associated protein of MTOR complex 1) (from UniProt Q8N122 1-1335)
